Positions of bridges follow the written chain, without caps; N, C: chain ends. Residues, ends and D or L forms follow the SMILES beside them. Chains are numbered I, II in the order given. *: point of attachment. Palmitoyl = CCCCCCCCCCCCCCCC(=O)*; Myristoyl = CCCCCCCCCCCCCC(=O)*
Test system: red blood cells (RBCs) of New Zealand white rabbits
Assay type: cell-based, rabbit
Procedure: Fresh red blood cells (RBCs) of New Zealand white rabbits were used for this experiment. The RBCs obtained were centrifuged at 3000 rpm for 10 min. Supernatant was removed and washed twice with sterile PBS Buffer (20 mM, 100 mM NaCl, pH 7). The RBCs were further diluted to 8% stock solution in PBS. Peptides were dissolved in PBS with desired stock concentrations. When compounds were mixed with RBCs, desired concentration of 4% RBCs was obtained. For C14V2D and C16V2D, they were dissolved in Dimethylformamide ([…]; DMF) with desired stock concentrations. When compounds were mixed with RBCs, desired concentration of 4% RBCs and 0.5% DMF was obtained. DMF concentration of <1% was used as it had negligible hemolytic activity on RBCs. The mixtures were added to 1.5 mL centrifuge tubes and incubated at 37° C. for 1 h. After incubation, the blood was centrifuged at 3000 rpm for 3 min at 4° C. 100 μL of the supernatant was transferred into transparent 96-well plate. The absorbance was measured at 576 nm using a microplate reader (TECAN Infinite 200M Pro). 2% Triton X-100 was used as positive control. PBS was used as negative controls. The amount of hemoglobin released was calculated using the following equation: […]

Structure (SMILES)	Selectivity = HC10/MIC
CCCCCCCCCCCCCCCC(=O)N[C@@H](CCCNC(=N)N)C(=O)NCC(=O)N[C@@H](CCCNC(=N)N)C(=O)N[C@@H](CCCCN)C(=O)N[C@H](C(=O)N[C@H](C(=O)NCCCC[C@H](NC(=O)[C@@H](NC(=O)[C@@H](NC(=O)[C@H](CCCCN)NC(=O)[C@H](CCCNC(=N)N)NC(=O)CNC(=O)[C@H](CCCNC(=N)N)NC(=O)CCCCCCCCCCCCCCC)C(C)C)C(C)C)C(=O)N[C@@H](CCCCN)C(=O)O)C(C)C)C(C)C [Peptide C16-V2D, (C15H31—CO—NH—RGRKVV)2KK] (I: Palmitoyl-RGRKVVKK-OH / II: Palmitoyl-RGRKVV; amide I:7-II:C; C-terminus assumed)	1-2
CCCCCCCCCCCCCC(=O)N[C@@H](CCCNC(=N)N)C(=O)NCC(=O)N[C@@H](CCCNC(=N)N)C(=O)N[C@@H](CCCCN)C(=O)N[C@H](C(=O)N[C@H](C(=O)N[C@@H](CCCNC(=N)N)C(=O)N[C@@H](CCCNC(=N)N)C(=O)NCCCC[C@H](NC(=O)[C@H](CCCNC(=N)N)NC(=O)[C@H](CCCNC(=N)N)NC(=O)[C@@H](NC(=O)[C@@H](NC(=O)[C@H](CCCCN)NC(=O)[C@H](CCCNC(=N)N)NC(=O)CNC(=O)[C@H](CCCNC(=N)N)NC(=O)CCCCCCCCCCCCC)C(C)C)C(C)C)C(=O)N[C@@H](CCCCN)C(=O)O)C(C)C)C(C)C [Peptide C14-V2D, (C13H23—CO—NH—RGRKVVRR)2KK] (I: Myristoyl-RGRKVVRRKK-OH / II: Myristoyl-RGRKVVRR; amide I:9-II:C; N-terminus and C-terminus assumed)	10-81
